From patent US20160115201, “PEPTIDES BINDING TO PARALLEL-STRANDED G-QUADRUPLEXES” (NANYANG TECHNOLOGICAL UNIVERSITY, published 2016)
For part of these data: A negative result means that nothing was seen under these conditions. For part of these data: Where a protein sequence is shown, tags need not be part of it. For part of these data: The exact form of at least one protein or probe is not confirmed.

Experiments:
Test in all cases: EMSA
[1] = molecular target: T1, Rhau55 (N-terminal fragment of RHAU/DHX36) (UniProt Q9H2U1); details: estimated, dilute K+ solution, purified recombinant protein, protein details: expressed in E. coli, label: FAM or TAMRA, folded or branched DNA
T1 sequence: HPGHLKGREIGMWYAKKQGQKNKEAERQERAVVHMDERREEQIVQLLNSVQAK

[2] = test system: Rhau14; details: 70 mM KCl, 20 mM phosphate pH 6.8; synthetic protein; folded or branched DNA
[3] = test system: Rhau16; details: synthetic protein; protein details: synthetic 16-residue peptide, residues not shown; folded or branched DNA
[4] = molecular target: Rhau18 (Rhau18sm) (UniProt Q9H2U1); details: hybrid 3+1; label: FAM or TAMRA; folded or branched DNA

Sequence “TAGGGTTAGGGTTAGGGTTAGGGTT [Htelo2 in dilute condition]” has a Kd [1] of over 10 µM.
TTGGGTGGGTGGGTGGGT [T95_2T]: no binding [2]; binds [3].
Work on “GGGTTAGGGTTAGGGTTAGGGT [Htelo3 in dilute condition]” yielded a Kd [1] of over 10 µM.
“AGGGCTAGGGCTAGGGCTAGGG [Htelo4 in dilute condition]” gave a Kd ([1]; printed Heto14) of over 10 µM.
“TAGGGTTAGGGTTAGGGTTAGGG [Htelo1 in dilute condition]”: no binding [4].
